For this assay, the system named is FaDu. The assay is described as follows: mitochondrial oxygen consumption rate normalised to cell number, Z score over the library; higher = higher oxygen consumption (negative = OCR reduction). Particulars: treatment time 24 h, assay medium: 5 mM galactose, 5 mM pyruvate, 4 mM glutamine. The protocol:
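Primary screen: FaDu cells were incubated 24 h with Pharmakon 1600 / TDI oncology set compounds at 2 or 10 uM. Mitochondrial-specific OCR (basal minus 2 uM antimycin A) was measured on a Seahorse XF96 in assay medium with 5 mM galactose, 5 mM pyruvate and 4 mM glutamine, then corrected for Hoechst cell number and expressed as a Z score […]. Compounds that cut cell number by >66% were excluded. Two repeats.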

Several values for one entry are separate records, joined by “and”; a condition that tells them apart may be missing. Equal values may be shown once. ± gives the standard deviation of the averaged measurements. Only a part is listed here, and it is no random draw. Most values lie within the scatter of the assay; repeated measurements hardly agree.

As to `CO[C@H]1C[C@H](O[C@@H]2/C(C)=C/C[C@@H]3C[C@@H](C[C@]4(CC[C@H](C)[C@@H](C5CCCCC5)O4)O3)OC(=O)[C@@H]3C=C(C)/C(=N/O)[C@H]4OC/C(=C\C=C\[C@@H]2C)[C@]43O)O[C@@H](C)[C@@H]1O`, where the note is “2 µM”, the “mitochondrial oxygen consumption rate normalised” value is 0.631 ± 1.1.
On the same count and under the same terms, then `Cc1nc2sccn2c(=O)c1CCN1CCC(=C(c2ccc(F)cc2)c2ccc(F)cc2)CC1`, with -0.216 ± 0.14.
As to `C[C@H](CCC(=O)O)[C@H]1CC[C@H]2[C@@H]3C(=O)C[C@@H]4CC(=O)CC[C@]4(C)[C@H]3CC(=O)[C@]12C`, where the note is “2 µM”, the “mitochondrial oxygen consumption rate normalised” value is 0.323 and 0.199.
Turning to `COC(=O)/C=C/C(=O)OC`, the “mitochondrial oxygen consumption rate normalised” value (2 µM) stood at 0.0211 ± 0.47.
In the case of `OC[C@H]1O[C@@H](O[C@H]2[C@H](O)[C@@H](O)C(O)O[C@@H]2CO)[C@H](O)[C@@H](O)[C@H]1O` (some centres not stated), where the note is “2 µM”, the “mitochondrial oxygen consumption rate normalised” value was -0.885 ± 0.082.
In the case of `C[N+](C)(C)CCOC(N)=O`, for the setting “2 µM”, the “mitochondrial oxygen consumption rate normalised” value is 0.487 ± 0.87.
On the same count and under the same terms, in the case of `CC(C)(C)NC[C@H](O)COc1cccc2c1CCCC2=O` it was -0.373 ± 0.2.
Take `O=C(NC(Cc1cc(=O)[nH]c2ccccc12)C(=O)O)c1ccc(Cl)cc1` (configuration not stated): under “2 µM”, the “mitochondrial oxygen consumption rate normalised” value is -0.591 ± 0.17.
On to `CN(C)CCc1c[nH]c2ccc(CS(=O)(=O)N3CCCC3)cc12`, for which, where the note is “2 µM”, the “mitochondrial oxygen consumption rate normalised” value came out at 0.0964 ± 0.23.
On the same count and under the same terms, then `N[C@@H](Cc1ccc(O)c(O)c1)C(=O)O`, with -1.31 ± 1.
On to `CN1CCN2c3ccccc3Cc3ccccc3C2C1` (configuration not stated), for which the “mitochondrial oxygen consumption rate normalised” value (2 µM) was -0.729 ± 0.86.
Turning to `O=C(O)CCC(=O)c1ccc(-c2ccccc2)cc1`, for the setting “2 µM”, the “mitochondrial oxygen consumption rate normalised” value came out at 0.854 ± 0.82.
Consider `Cc1ccccc1C(OCCN(C)C)c1ccccc1` (configuration not stated), for which the “mitochondrial oxygen consumption rate normalised” value (2 µM) is -0.973 ± 0.92.
`O=C1C(O)=C([C@H]2CC[C@H](c3ccc(Cl)cc3)CC2)C(=O)c2ccccc21`: the “mitochondrial oxygen consumption rate normalised” value (2 µM) was found to be 0.257 ± 0.84.
On the same count and under the same terms, in the case of `COc1c2ccoc2cc2oc(=O)ccc12` it was -0.787 ± 0.19.
Take `NC(=O)NC1NC(=O)NC1=O` (configuration not stated): the “mitochondrial oxygen consumption rate normalised” value (2 µM) was determined as 0.0997 ± 0.32.
As for `CN(C)CCOC(c1ccc(Cl)cc1)c1ccccn1` (configuration not stated), the “mitochondrial oxygen consumption rate normalised” value (2 µM) was 0.627 ± 0.85.
Consider `O=C1CCc2ccc(OCCCCN3CCN(c4cccc(Cl)c4Cl)CC3)cc2N1`, for which, for the setting “2 µM”, the “mitochondrial oxygen consumption rate normalised” value is -0.798 ± 0.11.
`COC(=O)C1=C(C)NC(C)=C(C(=O)OCC(C)C)C1c1ccccc1[N+](=O)[O-]` (configuration not stated): for the setting “2 µM”, the “mitochondrial oxygen consumption rate normalised” value is -0.133 ± 0.059.
Turning to `C/C=C(/C)C(=O)O[C@H]1[C@H](OC(C)=O)[C@@]2(CO)C(CC1(C)C)C1=CCC3[C@@]4(C)CCC(O[C@@H]5O[C@H](C(=O)O)[C@@H](O[C@@H]6O[C@H](CO)[C@@H](O)[C@H](O)[C@H]6O)[C@H](O)[C@H]5O[C@@H]5O[C@H](CO)[C@@H](O)[C@H](O)[C@H]5O)[C@](C)(CO)C4CC[C@@]3(C)[C@]1(C)C[C@H]2O.C/C=C(\C)C(=O)O[C@H]1[C@H](OC(C)=O)[C@@]2(CO)C(CC1(C)C)C1=CCC3[C@@]4(C)CCC(O[C@@H]5O[C@H](C(=O)O)[C@@H](O[C@@H]6O[C@H](CO)[C@@H](O)[C@H](O)[C@H]6O)[C@H](O)[C@H]5O[C@@H]5O[C@H](CO)[C@@H](O)[C@H](O)[C@H]5O)[C@](C)(CO)C4CC[C@@]3(C)[C@]1(C)C[C@H]2O` (some centres not stated), the “mitochondrial oxygen consumption rate normalised” value is -0.381 ± 0.42 (2 µM) and 0.3 ± 0.096 (10 µM).
As to `CN1CCN(c2c(F)cc3c(=O)c(C(=O)O)cn4c3c2SCC4)CC1`, the “mitochondrial oxygen consumption rate normalised” value (2 µM) was -0.387 ± 0.33.
Take `COC(=O)C1=C(C)NC(C)=C(C(=O)OCCN(C)Cc2ccccc2)C1c1cccc([N+](=O)[O-])c1` (configuration not stated): the “mitochondrial oxygen consumption rate normalised” value (2 µM) was found to be 0.597 ± 0.27.
On to `O=C1[C@H](CC[C@H](O)c2ccc(F)cc2)[C@@H](c2ccc(O)cc2)N1c1ccc(F)cc1`, for which the “mitochondrial oxygen consumption rate normalised” value (2 µM) amounted to 0.0988 ± 1.1.
For `O=S(=O)(O)c1cc(I)c(O)c2ncccc12`, the “mitochondrial oxygen consumption rate normalised” value (2 µM) turned out to be 0.858 ± 0.27.
`Cc1cnc(C(=O)NCCc2ccc(S(=O)(=O)NC(=O)NC3CCCCC3)cc2)cn1`: the “mitochondrial oxygen consumption rate normalised” value (2 µM) is 0.308 ± 0.75.
On to `O=C(O)COCCN1CCN([C@H](c2ccccc2)c2ccc(Cl)cc2)CC1`, for which the “mitochondrial oxygen consumption rate normalised” value (2 µM) was -0.0896 ± 1.
Regarding `CC(O)(P(=O)(O)O)P(=O)(O)O`, for the setting “2 µM”, the “mitochondrial oxygen consumption rate normalised” value was -0.749 ± 0.79.
`CCC1NC(=O)c2cc(S(N)(=O)=O)c(Cl)cc2N1` (configuration not stated): the “mitochondrial oxygen consumption rate normalised” value (2 µM) turned out to be 0.867 ± 1.9.
On to `CCCCCOC(=O)Nc1nc(=O)n([C@@H]2O[C@H](C)[C@@H](O)[C@H]2O)cc1F` [Capecitabine], for which, where the note is “2 µM”, the “mitochondrial oxygen consumption rate normalised” value came out at 0.441 ± 0.042.
Take `CCCCCOC(=O)Nc1nc(=O)n([C@@H]2O[C@H](C)[C@@H](O)[C@H]2O)cc1F`: the “mitochondrial oxygen consumption rate normalised” value (2 µM) worked out at 0.182 ± 0.33.
Consider `CCCCNc1ccc(C(=O)OCCN(C)C)cc1`, for which, under “2 µM”, the “mitochondrial oxygen consumption rate normalised” value is -1 ± 0.02.
Same read-out and setting: then `CCN(CC)CCOc1ccc(C(=C(Cl)c2ccccc2)c2ccccc2)cc1`, with -0.21 ± 0.8; and `CN1CCC(=C2c3ccccc3CCc3sccc32)CC1`, with 0.188 ± 0.86; and `CN1CCOC(c2ccccc2)c2ccccc2C1` (configuration not stated), with 0.225 ± 0.21.
In the case of `Cc1ncc(COP(=O)([O-])[O-])c(CN(CCN(CC(=O)O)Cc2c(COP(=O)([O-])O)cnc(C)c2O)CC(=O)O)c1O.[Mn].[Na+].[Na+].[Na+]`, the “mitochondrial oxygen consumption rate normalised” value by setting is: (2 µM) 0.623 ± 1.7; (10 µM) 0.342 ± 0.21.
Consider `CC1CCCC(C)N1` (configuration not stated), for which the “mitochondrial oxygen consumption rate normalised” value (2 µM) came to 0.984 ± 0.61.
Regarding `CC1=C(C/C=C(\C)CCC[C@H](C)CCC[C@H](C)CCCC(C)C)C(=O)c2ccccc2C1=O`, the “mitochondrial oxygen consumption rate normalised” value (2 µM) worked out at 1.21 ± 0.93.
In the case of `O=C(O)C1(C(=O)O)CCC1.[NH2-].[NH2-].[Pt+2]`, the “mitochondrial oxygen consumption rate normalised” value (2 µM) was found to be 0.296 ± 1.2.
With `O=C(O)C1(C(=O)O)CCC1.[NH2-].[NH2-].[Pt+2]` [Carboplatin], the “mitochondrial oxygen consumption rate normalised” value (2 µM) turned out to be 0.984 ± 0.17.
Turning to `Cc1cnc(C(=O)O)c[n+]1[O-]`, the “mitochondrial oxygen consumption rate normalised” value (2 µM) stood at 0.0995 ± 0.68.
In the case of `CC(=O)Nc1cccc(O)c1`, for the setting “2 µM”, the “mitochondrial oxygen consumption rate normalised” value was -0.934 ± 0.58.
For `CC(C)Cc1ccc(C(C)C(=O)O)cc1` (configuration not stated), under “2 µM”, the “mitochondrial oxygen consumption rate normalised” value was -0.554 ± 0.21.
`COc1ccc(CN2CCN(C(c3ccc(F)cc3)c3ccc(F)cc3)CC2)c(OC)c1OC`: where the note is “2 µM”, the “mitochondrial oxygen consumption rate normalised” value is -0.218 ± 0.43.
As to `OCc1ccccn1`, the “mitochondrial oxygen consumption rate normalised” value (2 µM) amounted to 0.881 ± 0.86.
On the same count and under the same terms, in the case of `COCCc1ccc(OCC(O)CNC(C)C)cc1` (configuration not stated) it was 0.119 ± 1.1.

The values above are taken from the supplement of paper PMC4962491.
